Test results published in paper PMC7735678, “Auxin response factors (ARFs) differentially regulate rice antiviral immune response against rice dwarf virus”.
These are yes or no findings as the source states them, for the method shown. Binding calls can cover weak binding; strength is not graded here. Sequences can lack the tags named with a protein. For some assays here: Binding seen in cells or lysates may run through a third protein.

T1: OsIAA10-nLUC (rice) (UniProt Q0DWF2)
T1 sequence: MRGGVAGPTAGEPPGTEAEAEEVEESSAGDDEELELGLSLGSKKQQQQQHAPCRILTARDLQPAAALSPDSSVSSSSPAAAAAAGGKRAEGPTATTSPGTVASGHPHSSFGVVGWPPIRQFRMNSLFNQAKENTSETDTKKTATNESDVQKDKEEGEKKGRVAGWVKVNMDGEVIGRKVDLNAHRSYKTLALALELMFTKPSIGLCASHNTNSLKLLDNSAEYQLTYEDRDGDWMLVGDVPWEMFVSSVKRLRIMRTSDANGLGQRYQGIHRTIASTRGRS

T2: FLAG-tagged OsIAA10 (rice) (UniProt Q0DWF2)
T2 sequence: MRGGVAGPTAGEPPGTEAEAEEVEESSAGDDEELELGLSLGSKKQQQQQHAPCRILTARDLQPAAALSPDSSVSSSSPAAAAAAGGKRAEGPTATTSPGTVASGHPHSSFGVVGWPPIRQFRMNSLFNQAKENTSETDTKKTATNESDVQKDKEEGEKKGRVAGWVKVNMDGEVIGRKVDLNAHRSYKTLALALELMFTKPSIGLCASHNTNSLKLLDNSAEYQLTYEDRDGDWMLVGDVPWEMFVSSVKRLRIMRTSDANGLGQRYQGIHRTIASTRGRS


Assays:
OsIAA10-nLUC (rice) = molecular target: T1, OsIAA10-nLUC (rice); assay: split reporter; firefly luciferase complementation imaging (LCI): OsIAA10-nLUC and cLUC-OsARFs co-infiltrated in N. benthamiana leaves; 0.2 mM luciferin after three days; CCD imaging
[1] = molecular target: T2, FLAG-tagged OsIAA10 (rice); assay: co-IP; HA-OsARFs and FLAG-OsIAA10 co-expressed in N. benthamiana leaves by agroinfiltration, 3 days; IP buffer 50 mM Tris-HCl pH7.5, 150 mM NaCl, 0.1% NP-40, 5 mM DTT; anti HA- mAb or anti FLAG- mAb agarose, 4°C, 1 hr; detection by blot
[2] = molecular target: OsARF11 expressed as a GAL4 DNA binding domain fusion (rice (cDNA of ZH11)); assay: two-hybrid; yeast AH109 co-transformed with OsIAA10 (GAL4 AD fusion) and OsARFs (GAL4 BD fusion, bait); growth on SD/-Leu/-Trp/-His/-Ade
[3] = molecular target: OsARF12 expressed as a GAL4 DNA binding domain fusion (rice (cDNA of ZH11)); assay: as above
[4] = molecular target: OsARF16 expressed as a GAL4 DNA binding domain fusion (rice (cDNA of ZH11)); assay: as above
[5] = molecular target: OsARF17 expressed as a GAL4 DNA binding domain fusion (rice (cDNA of ZH11)); assay: as above
[6] = molecular target: OsARF19 expressed as a GAL4 DNA binding domain fusion (rice (cDNA of ZH11)); assay: as above
[7] = molecular target: OsARF21 expressed as a GAL4 DNA binding domain fusion (rice (cDNA of ZH11)); assay: as above
[8] = molecular target: OsARF25 expressed as a GAL4 DNA binding domain fusion (rice (cDNA of ZH11)); assay: as above
[9] = molecular target: OsARF5 expressed as a GAL4 DNA binding domain fusion (rice (cDNA of ZH11)); assay: as above
[10] = molecular target: OsARF6 expressed as a GAL4 DNA binding domain fusion (rice (cDNA of ZH11)); assay: as above

Row | Molecule | binding (OsIAA10-nLUC (rice)) | binding [1] | also measured
1 | cLUC-OsARF5 (rice (cDNA of ZH11)) | no binding | – | –
2 | cLUC-OsARF6 (rice (cDNA of ZH11)) | no binding | – | –
3 | cLUC-OsARF11 (rice (cDNA of ZH11)) | binds | – | –
4 | cLUC-OsARF12 (rice (cDNA of ZH11)) | binds | – | –
5 | cLUC-OsARF16 (rice (cDNA of ZH11)) | binds | – | –
6 | cLUC-OsARF17 (rice (cDNA of ZH11)) | no binding | – | –
7 | cLUC-OsARF19 (rice (cDNA of ZH11)) | binds | – | –
8 | cLUC-OsARF21 (rice (cDNA of ZH11)) | binds | – | –
9 | cLUC-OsARF25 (rice (cDNA of ZH11)) | no binding | – | –
10 | hemagglutinin (HA)-tagged OsARF11 (rice (cDNA of ZH11)) | – | binds | –
11 | hemagglutinin (HA)-tagged OsARF12 (rice (cDNA of ZH11)) | – | binds | –
12 | hemagglutinin (HA)-tagged OsARF16 (rice (cDNA of ZH11)) | – | binds | –
13 | hemagglutinin (HA)-tagged OsARF19 (rice (cDNA of ZH11)) | – | binds | –
14 | hemagglutinin (HA)-tagged OsARF21 (rice (cDNA of ZH11)) | – | binds | –
15 | OsIAA10 expressed as a GAL4 DNA activation domain fusion (protein, UniProt Q0DWF2 1-281) MRGGVAGPTAGEPPGTEAEAEEVEESSAGDDEELELGLSLGSKKQQQQQHAPCRILTARDLQPAAALSPDSSVSSSSPAAAAAAGGKRAEGPTATTSPGTVASGHPHSSFGVVGWPPIRQFRMNSLFNQAKENTSETDTKKTATNESDVQKDKEEGEKKGRVAGWVKVNMDGEVIGRKVDLNAHRSYKTLALALELMFTKPSIGLCASHNTNSLKLLDNSAEYQLTYEDRDGDWMLVGDVPWEMFVSSVKRLRIMRTSDANGLGQRYQGIHRTIASTRGRS | – | – | binding [2]: binds; binding [3]: binds; binding [4]: binds; binding [5]: binds; binding [6]: binds; binding [7]: binds; binding [8]: binds; binding [9]: binds; binding [10]: binds
